Measurements published in patent US9394233B2, “ROS-activated compounds as selective anti-cancer therapeutics” (University of Cincinnati, priority 2012, dated 2016).

These molecules were tested on MA9.3 AML cells (assay: AML cytotoxicity, MTT assay on MA9.3 AML cell line). Conditions: IC50 in CD34+ stem/progenitor cells relative to MA9.3 AML cells.
Type: cell-based, human
From the text: To assess the anti-cancer activity against AML, transformed cells were compared to closely related, non-transformed counterparts. In the case of AML, the generally accepted non-transformed cell of origin is the human CD34+ blood stem/progenitor cell. Assessing potency against normal blood stem cells is important since, without selective cytotoxicity, an agent will yield reduced efficacy and therapeutic potential. […] Therefore, a comparison of current agents and the ROS-activated compounds disclosed herein was carried out. (FIG. 3). Cytotoxicity was measured via MTT assay on CD34+ blood stem/progenitor cells (grey lines) and on the MA9.3 AML cell line (black lines), which was derived from the transformation of human CD34+ cells by introduction of the leukemia oncogene MLL-AF9.

Q: For CN(CCCOc1ccc(O)cc1)c1ccccc1 [Compound 9, 4-(3-(methyl(phenyl)amino)propoxy)phenol], which therapeutic index is on record?
A: Its therapeutic index is 7.7±3.

Q: Which therapeutic index does the source give for Nc1ccn([C@@H]2O[C@H](CO)[C@@H](O)[C@@H]2O)c(=O)n1 [ara-C, cytosine arabinoside] here?
A: The therapeutic index was 0.6±0.1.

Q: How did the therapeutic index turn out when O=C(O)CCCc1ccc(N(CCCl)CCCl)cc1 [chlorambucil] was run?
A: Its therapeutic index is 1.3±0.1.

Q: Which therapeutic index does the source give for N.N.[Cl][Pt][Cl] [cisplatin] here?
A: The therapeutic index was 1.0±0.2.

Q: COc1cccc2c1C(=O)c1c(O)c3c(c(O)c1C2=O)C[C@@](O)(C(=O)CO)C[C@@H]3O[C@H]1C[C@H](N)[C@H](O)[C@H](C)O1 [doxorubicin] was tested. Which therapeutic index did it give?
A: The therapeutic index was 0.9±0.2.
